Results as given in paper PMC7819943, “Rice protein-binding microarrays: a tool to detect cis-acting elements near promoter regions in rice”.
The other results are listed elsewhere or left out.

Protein sequences, listed by entry. Tags and fused reporters are not part of them.
UniProt Q0JBA9, entry or part of it: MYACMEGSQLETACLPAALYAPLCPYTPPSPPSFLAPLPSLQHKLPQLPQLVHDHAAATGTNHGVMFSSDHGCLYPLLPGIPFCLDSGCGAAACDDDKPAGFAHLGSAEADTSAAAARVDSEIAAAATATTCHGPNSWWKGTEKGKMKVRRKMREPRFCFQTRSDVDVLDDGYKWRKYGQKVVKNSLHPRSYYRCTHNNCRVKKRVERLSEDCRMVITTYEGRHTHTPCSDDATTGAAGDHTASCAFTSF

biological target: OsWRKY34 (Oryza sativa, UniProt Q0JBA9 1-250); experiment: protein-binding microarray (RPBM); PBS, 2% BSA, 51.3 ng/ul salmon testes DNA, 50 uM zinc acetate, 200 nM TF, 25 C, 1 h; high values mean tight binding; settings: protein: recombinant; tags: N-terminal polyhistidine and DsRed monomer fusion (pET32a); label: CyDye5-dUTP incorporated in the synthesized complementary strand; 3' TTTTT single-stranded linker to array surface; dsDNA, one strand shown
Method in brief: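 Polyhistidine-tagged DsRed fusions of transcription factors, joined at the N-terminus, were expressed in E. coli BL21-CodonPlus and isolated on Ni–NTA. They were incubated at 200 nM for 1 h at 25 °C on a custom Agilent array, double-stranded and BSA-blocked, in PBS with 2% BSA, salmon testes DNA and 50 µM zinc acetate. The binding signal is per-feature fluorescence intensity (arbitrary units) read on an Axon 4000B scanner after washing.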

In order of falling binding signal:
1. TGGAGAGCGTTGCTTTTTTTGGGCGGGTTTGGATTTTTATCGGAGTCACCTAGTGCAG  21600 fluorescence intensity (a.u.)
2. GTGAGGTGTCTTTGTATATATCCTTTTTGACCTTTCTAGCCGGAGTCACCTAGTGCAG  16100 fluorescence intensity (a.u.)
3. TGACACATGAGGTTCTTTTTTTTTCTTTTGTACTCTTCTCCGGAGTCACCTAGTGCAG  13500 fluorescence intensity (a.u.)
4. AGTTGTCCTGCTTTTTTGCTTTCCTAATCTGTTTCCATTTCGGAGTCACCTAGTGCAG  13300 fluorescence intensity (a.u.)
5. TTAGAAGTGCTTCATGGGTTTGGTTCTACTTCTGTTCTTTCGGAGTCACCTAGTGCAG  13000 fluorescence intensity (a.u.)
6. TTCCCGCGTTTAATTAGTACGTATCACCTCTCATGCATTTCGGAGTCACCTAGTGCAG  12300 fluorescence intensity (a.u.)
7. TCCCACGACCACCTCGCCTCGCCACCATATCTGCAGCTCCCGGAGTCACCTAGTGCAG  12100 fluorescence intensity (a.u.)
8. CTATCCGGTATCTAATTCTTTGTACTCTCCACTTACCTCTCGGAGTCACCTAGTGCAG  11900 fluorescence intensity (a.u.)
9. CGTCTACCAACAACTAACCGCCATCTCTCTCCTCGCTTTTCGGAGTCACCTAGTGCAG  11200 fluorescence intensity (a.u.)
10. GCGGTTCGAACGCGCGCGGGTGCTGACTTGGCGTTGACCTCGGAGTCACCTAGTGCAG  10900 fluorescence intensity (a.u.)
11. CCTTGTGTACTCTCGTGCTACTCTAGTTTCCATTCCATTTCGGAGTCACCTAGTGCAG  10600 fluorescence intensity (a.u.)
12. CTCAAACCCTCGCTTCCGCCGACCACACGGCCGCACCATGCGGAGTCACCTAGTGCAG  10500 fluorescence intensity (a.u.)
13. TCACCAAACCGTTTCATCCATTCTCTTTTCTGGATTTAAACGGAGTCACCTAGTGCAG  10500 fluorescence intensity (a.u.)
14. GGTTTTGTACGGTTTTTCACGGTTACCGCGGTAACCGTTGCGGAGTCACCTAGTGCAG  10000 fluorescence intensity (a.u.)
15. GTTTCCTTTCCCCGCGGATTAATAAACACTCGTCGAGCAACGGAGTCACCTAGTGCAG  9710 fluorescence intensity (a.u.)
16. CCGCACCACCACCGCCTCCCCTCCGTTTCCCCTCCCTCACCGGAGTCACCTAGTGCAG  9690 fluorescence intensity (a.u.)
17. TTACATTTCTATCAAAATCTCATGTTTTTCTTATTCCTACCGGAGTCACCTAGTGCAG  9600 fluorescence intensity (a.u.)
18. GCTTTTCTCTTCCTTTTCGCTCGCTCTCAAGGCCCATAACCGGAGTCACCTAGTGCAG  9530 fluorescence intensity (a.u.)
19. TAGCGAGGTACCTATCATGACTTCGTCAGTCTCATATTTCCGGAGTCACCTAGTGCAG  9490 fluorescence intensity (a.u.)
20. ACGCTGACGCAGATCAACCAACCACTACTACCGCCCGCAACGGAGTCACCTAGTGCAG  9430 fluorescence intensity (a.u.)
21. TCCATGTGCTCCAACCTTGAGGAATTGCCTCGTTCCATATCGGAGTCACCTAGTGCAG  9130 fluorescence intensity (a.u.)
22. TTTCTCCAGCTAGCCAGCGCGGTGCTTTGACTTTGTCATCCGGAGTCACCTAGTGCAG  9110 fluorescence intensity (a.u.)
23. CTCCACCTGTCGCCTAAACCCTAGCTCGCATCTCGAGGCACGGAGTCACCTAGTGCAG  8940 fluorescence intensity (a.u.)
24. GTCAACTACAGGATCATCCATGTGATTTCCTGCTTCTTCTCGGAGTCACCTAGTGCAG  8910 fluorescence intensity (a.u.)
25. CCCACTTCTCCTCATCCCAATCTCGAATCCTCTGACTCCGCGGAGTCACCTAGTGCAG  8830 fluorescence intensity (a.u.)
26. GGAGTGGTGGCGTGGTGTGTGGGTTCGGAGATGGATTCTACGGAGTCACCTAGTGCAG  8800 fluorescence intensity (a.u.)
27. TCTCTCTCGTCTCTCCTCTCTCGTCTCGTGTATAAATTTCCGGAGTCACCTAGTGCAG  8800 fluorescence intensity (a.u.)
28. ATTTATATTTGTAACTGTTTTTCTATTATGTGTTTCCTTCCGGAGTCACCTAGTGCAG  8720 fluorescence intensity (a.u.)
29. TTTCCGCATTTCCGCTCCTCTCTTTTTTACCCTTGACATGCGGAGTCACCTAGTGCAG  8530 fluorescence intensity (a.u.)
30. ATGAAGCAACATTAACGCTAGGTTTTTATCTGTTTAAGCCCGGAGTCACCTAGTGCAG  8510 fluorescence intensity (a.u.)
31. ACCGTCTCTTTCTTGTTGCAGAGCGCCGCGCCCAACCGGCCGGAGTCACCTAGTGCAG  8460 fluorescence intensity (a.u.)
32. TGTGCTCCAACAGTTTAAAGTCAGAATAGCATTTCTTTTTCGGAGTCACCTAGTGCAG  8450 fluorescence intensity (a.u.)
33. GTACGACAACCACATACAACCCATGTCTGACTCAACTAGTCGGAGTCACCTAGTGCAG  8420 fluorescence intensity (a.u.)
34. ATCTCGCTTACGCTCTCACGCTGTCGCCATCTCGCGCCACCGGAGTCACCTAGTGCAG  8340 fluorescence intensity (a.u.)
35. GGCTCCCTGGTAGGCCCGAAACCCTCACCTCGTTCTCTATCGGAGTCACCTAGTGCAG  8330 fluorescence intensity (a.u.)
36. CCAATATCACGTTGTCCTAGCTCTGCCAACGACTTCATCTCGGAGTCACCTAGTGCAG  8320 fluorescence intensity (a.u.)
37. GGCACAAACACCTACACGGCTACACCTCATGAGTCATGATCGGAGTCACCTAGTGCAG  8290 fluorescence intensity (a.u.)
38. ATCAGAAACAGTACGTGCCACTATGCATGCAAATTAATCACGGAGTCACCTAGTGCAG  8120 fluorescence intensity (a.u.)
39. AAGAAGCATTTGGCTGGTTTTTTTTGCATATAGGTCCCTTCGGAGTCACCTAGTGCAG  8090 fluorescence intensity (a.u.)
40. ATCAATATGAATTTGTGCTGTCTGGTATGAGTTATTCCAACGGAGTCACCTAGTGCAG  8080 fluorescence intensity (a.u.)
41. TATATTCATTACTCCGTCCCTTAATATAAGAGATTTTGACCGGAGTCACCTAGTGCAG  8040 fluorescence intensity (a.u.)
42. CGCCGCTTTTCTCTCTCATCTTTTATCTCATTAAAATATGCGGAGTCACCTAGTGCAG  8040 fluorescence intensity (a.u.)
